Measured values: article PMC9723633
Results are given in words; binding and its absence hold for the method and conditions named. Binding seen in cells or lysates may run through a third protein. Some binding calls cover weakened binding; strength is not graded here.

Chains of the proteins cited; added tags and fusions are not shown.
UniProt P61406: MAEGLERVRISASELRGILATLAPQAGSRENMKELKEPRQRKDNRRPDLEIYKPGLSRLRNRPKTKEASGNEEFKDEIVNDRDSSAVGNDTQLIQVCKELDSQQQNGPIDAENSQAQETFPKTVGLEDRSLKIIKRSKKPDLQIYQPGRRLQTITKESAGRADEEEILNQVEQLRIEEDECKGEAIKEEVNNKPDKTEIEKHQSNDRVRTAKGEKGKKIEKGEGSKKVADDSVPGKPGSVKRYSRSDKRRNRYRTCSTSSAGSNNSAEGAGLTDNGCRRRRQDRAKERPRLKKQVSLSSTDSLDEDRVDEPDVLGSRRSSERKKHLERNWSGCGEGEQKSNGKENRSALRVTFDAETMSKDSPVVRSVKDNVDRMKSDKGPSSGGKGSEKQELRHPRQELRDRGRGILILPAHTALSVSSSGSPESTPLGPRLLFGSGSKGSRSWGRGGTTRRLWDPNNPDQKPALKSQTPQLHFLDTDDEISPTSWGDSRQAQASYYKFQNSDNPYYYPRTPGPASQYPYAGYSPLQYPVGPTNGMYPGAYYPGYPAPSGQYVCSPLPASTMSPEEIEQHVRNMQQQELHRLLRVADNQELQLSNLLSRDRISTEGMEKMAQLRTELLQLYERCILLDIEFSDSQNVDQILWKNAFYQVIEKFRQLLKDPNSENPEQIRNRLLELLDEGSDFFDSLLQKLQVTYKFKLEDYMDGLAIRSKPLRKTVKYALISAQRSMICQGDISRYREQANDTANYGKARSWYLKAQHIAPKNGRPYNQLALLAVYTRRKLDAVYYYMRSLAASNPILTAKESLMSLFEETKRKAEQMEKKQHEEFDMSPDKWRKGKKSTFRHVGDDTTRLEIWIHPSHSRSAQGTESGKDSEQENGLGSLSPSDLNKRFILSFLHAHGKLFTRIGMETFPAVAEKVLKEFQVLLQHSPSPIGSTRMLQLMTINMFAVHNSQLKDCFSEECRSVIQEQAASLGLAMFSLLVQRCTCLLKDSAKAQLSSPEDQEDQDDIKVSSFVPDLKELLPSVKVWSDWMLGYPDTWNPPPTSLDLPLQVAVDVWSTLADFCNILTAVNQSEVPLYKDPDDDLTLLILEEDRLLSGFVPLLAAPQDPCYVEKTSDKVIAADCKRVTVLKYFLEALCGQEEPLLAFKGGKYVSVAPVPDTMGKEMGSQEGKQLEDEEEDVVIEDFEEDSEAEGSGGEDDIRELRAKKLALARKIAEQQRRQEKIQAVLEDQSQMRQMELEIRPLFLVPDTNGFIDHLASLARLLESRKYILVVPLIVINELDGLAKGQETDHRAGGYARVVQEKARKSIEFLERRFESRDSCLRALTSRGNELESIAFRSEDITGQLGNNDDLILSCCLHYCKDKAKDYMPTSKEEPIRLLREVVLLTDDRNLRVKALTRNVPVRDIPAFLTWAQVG
UniProt Q9JMB7: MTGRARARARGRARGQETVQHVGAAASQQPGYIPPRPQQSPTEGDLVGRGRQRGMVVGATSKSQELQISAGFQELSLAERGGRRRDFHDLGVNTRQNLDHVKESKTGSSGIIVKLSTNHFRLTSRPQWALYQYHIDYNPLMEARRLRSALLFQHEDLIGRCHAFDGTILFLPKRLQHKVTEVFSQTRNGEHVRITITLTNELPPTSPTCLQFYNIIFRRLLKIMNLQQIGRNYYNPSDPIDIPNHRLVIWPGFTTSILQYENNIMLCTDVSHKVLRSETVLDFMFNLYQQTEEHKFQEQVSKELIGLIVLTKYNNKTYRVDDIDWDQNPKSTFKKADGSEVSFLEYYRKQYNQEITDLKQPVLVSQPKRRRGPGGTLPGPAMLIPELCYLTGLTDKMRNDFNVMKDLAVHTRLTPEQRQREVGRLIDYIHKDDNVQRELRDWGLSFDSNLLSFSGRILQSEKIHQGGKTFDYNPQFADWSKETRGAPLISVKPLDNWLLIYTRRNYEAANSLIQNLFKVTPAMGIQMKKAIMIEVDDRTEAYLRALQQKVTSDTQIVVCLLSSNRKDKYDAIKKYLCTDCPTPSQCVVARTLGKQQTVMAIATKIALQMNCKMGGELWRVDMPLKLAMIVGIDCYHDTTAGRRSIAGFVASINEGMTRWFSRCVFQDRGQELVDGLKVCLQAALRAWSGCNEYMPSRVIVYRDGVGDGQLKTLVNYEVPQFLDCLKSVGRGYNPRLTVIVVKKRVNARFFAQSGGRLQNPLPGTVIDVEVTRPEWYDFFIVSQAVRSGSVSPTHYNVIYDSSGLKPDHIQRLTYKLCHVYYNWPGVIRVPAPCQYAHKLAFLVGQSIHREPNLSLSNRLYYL

T1: DEAD box polypeptide 4 (DDX4) (mouse (endogenous in testis)) (UniProt Q61496)
T1 sequence: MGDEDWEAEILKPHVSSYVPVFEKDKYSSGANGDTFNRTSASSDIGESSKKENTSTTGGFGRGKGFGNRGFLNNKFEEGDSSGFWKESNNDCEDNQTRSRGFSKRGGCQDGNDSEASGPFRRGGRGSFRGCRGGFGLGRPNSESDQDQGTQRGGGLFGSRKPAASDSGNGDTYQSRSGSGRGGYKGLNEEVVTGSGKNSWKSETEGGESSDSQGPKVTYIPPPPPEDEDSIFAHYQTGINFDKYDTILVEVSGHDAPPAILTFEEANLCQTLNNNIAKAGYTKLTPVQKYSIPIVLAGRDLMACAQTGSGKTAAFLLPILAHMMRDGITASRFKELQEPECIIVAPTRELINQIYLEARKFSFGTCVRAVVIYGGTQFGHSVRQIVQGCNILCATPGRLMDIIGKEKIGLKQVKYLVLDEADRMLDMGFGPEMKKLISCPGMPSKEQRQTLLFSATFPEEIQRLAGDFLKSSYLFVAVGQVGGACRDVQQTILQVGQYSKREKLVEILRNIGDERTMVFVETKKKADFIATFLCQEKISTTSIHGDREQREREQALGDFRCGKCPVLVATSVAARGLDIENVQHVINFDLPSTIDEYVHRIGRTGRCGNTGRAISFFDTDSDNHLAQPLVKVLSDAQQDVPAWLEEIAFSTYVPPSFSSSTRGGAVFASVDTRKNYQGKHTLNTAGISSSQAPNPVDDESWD


Columns and labels:
[1] = target: T1, DEAD box polypeptide 4 (DDX4) (mouse (endogenous in testis)); test: co-IP; chromatoid bodies isolated by anti-DDX4 IP (Dynabead Protein G, overnight at 4°C) from the CB-enriched pellet fraction of mouse germ cells fixed in 0.1% PFA and sonicated in RIPA buffer; western blotting; rabbit IgG as control; control or Smg6-cKO mice
[2] = target: SMG6 (mouse (endogenous in testis)) (UniProt P61406); test: co-IP; adult mouse testis lysate in isotonic nondenaturing lysis buffer (150 mM NaCl, 5 mM EDTA, 50 mM Tris-HCl pH 8.0, 1% Triton X-100); antibody overnight at 4°C, Dynabead Protein G; with or without RNase treatment; western blotting with anti-SMG6 and anti-PIWIL1; rabbit IgG as negative control

Row | Molecule | binding [1] | binding [2]
1 | SMG6 (from UniProt P61406 1-1418) | binds | –
2 | PIWIL1 (from UniProt Q9JMB7 1-862) | – | binds
3 | SMG7 (protein, UniProt Q5RJH6 1-1138) MSLQSAQYLRQAEVLKAEMTDSKLGPAEVWTSRQALQDLYQKMLVTDLEYALDKKVEQDLWNHAFKNQITTLQGQAKNRANPNRSEVQANLSLFLEAASGFYTQLLQELCTVFNVDLPCRVKSSQLGIISNKQTHSSTIVKPQSSSCSYICQHCLVHLGDIARYRNQTSQAESYYRHAAQLVPSNGQPYNQLAILASSKGDHLTTIFYYCRSIAVKFPFPAASTNLQKALSKALESRDELKTKWGVSDFIKAFIKFHGHVYLSKSLEKLSPLREKLEEQFKRLLFQKAFNSQQLVHVTVINLFQLHHLRDFSNETEQHSYSQDEQLCWTQLLALFMSFLGILCKCPLQNDSQESNNAYPLPAVKVSMDWLRLRPRVFQEAVVDERQYIWPWLISLLNSFHPREDDLSNTNATPLPEEFELQGFLALRPSFRNLDFSKGHQGITGDKEGQQRRIRQQRLISIGKWIADNQPRLIQCENEVGKLLFITEIPELILEDPSEAKENLILQETSVVESLATDGSPGLKSVLSTGRNPSNSCDSGEKPVVTFKENIKPREVNQGRSFPPKEVKSQTELRKTPVSEARKTPVTQTPSQTSNSQFIPIHHPGAFPPLPSRPGFPPPTYVIPPPVAFSMGSGYTFPAGVSVPGTFLQSTAHSPAGNQVQAGKQSHIPYSQQRPSGPGPMNQGPQQSQPPSQPPLTSLPAQPTAQSTSQLQVQALAQQQQSPTKVIPALGKSPPHHSGFQQYQQADASKQLWNPPQVQSPLGKIMPVKQSYYLQTQDPIKLFEPSLQPPVIQQQPLEKKMKPFPMEPYNHNPSEVKVPEFYWDSSYSMADNRAVMAQQPNMDRRSKRSPGVFRPEQDPVPRMPFEDPKSSPLLPPDLLKSLAALEEEEELIFSNPPDLYPALLGPLASLPGRSLFKSLLEKPSELMSHSSSFLSLTGFSVNQERYPNSSMFNEVYGKNLTTSSKAELNPSVASQETSLYSLFEGTPWSPSLPASSDHSTPASQSPHSSNPSSLPSSPPTHNHNSAPFSNFGPIGTPDNRDRRPADRWKTDKPAMGGFGVDYLSATSSSESSWHQASTPSGTWTGHGPSMEDSSAVLMESLKSIWSSSMMHPGPSALEQLLMQQKQKQQRGQGAMNPPH | no binding | –
